# Data: article PMC12040169 (PLOS Biology, 2025)
# This is one part of the list.
# System: T1, CTL2-GFP (C. trachomatis L2/434/Bu, GFP-expressing)
# T1 construct: L2/434/Bu, GFP-expressing
# Set-up: species or system HeLa; Intracellular C. trachomatis growth in HeLa cells, bulk GFP fluorescence relative to DMSO
# Details: bulk GFP, single well; 28.5 h, 10 µM; inhibitor
row,Structure (SMILES),% of control remaining
1,CS(=O)(=O)N1CCc2cc(S(=O)(=O)N3CCN(c4ccc([N+](=O)[O-])c(NCc5ccccc5)c4)CC3)ccc21 [CBK268311],121.94%
2,CC(=O)Nc1ccc(CCOc2nccnc2-c2ccccc2)cc1 [CBK106683],110.7%
3,CCCCC1CCC(C(=O)Nc2ncccn2)CC1 (stereo not shown) [CBK027423],127.884%
4,Cn1ccnc1C1(O)CCN(C(=O)c2ccc(F)cc2F)CC1 [CBK283552],77.0864%
5,COc1cc(C)c(Nc2cccc(-c3ccsc3)n2)cc1OC [CBK037025],77.8019%
6,COc1cc(C(=O)N2CCCC3(CCN(C(=O)c4cc(F)c(F)cc4F)C3)C2)cc(OC)c1OC (stereo not shown) [CBK131563],111.92%
7,COc1cc(C(=O)NCC(=O)O)cc(Cl)c1OCC(C)C [CBK297485],138.139%
8,Nc1nonc1C(=O)NCCNc1ccc([N+](=O)[O-])cn1 [CBK268279],129.326%
9,COCCSc1ccccc1C(=O)Nc1ccc(S(N)(=O)=O)cc1 [CBK267530],135.698%
10,CC(C)(CO)Cn1c(=O)[nH]c2ncc(-c3cccnc3)nc21 [CBK064697],156.212%
11,CC(C)(C)NC(=O)Cn1cncc1-c1[nH]c2ccccc2c1Cl [CBK281981],113.408%
12,Cc1cc(N2CCN(C(=O)CCc3nccs3)CC2)nc(C(C)C)n1 [CBK304778],114.824%
13,Cc1nc2c(C(=O)NCCNC(=O)c3cccnc3)ncn2c(C)c1Cc1ccc(F)c(Cl)c1 [CBK169332],167.943%
14,O=C(Nc1ccc(F)c(C(F)(F)F)c1)c1cncc(-c2ccc(C(=O)N3CCOCC3)cc2)c1 [CBK160216],116.386%
15,c1ccc(Cn2ccc3c(N4CCNCC4)nccc32)cc1 [CBK051672C],126.824%
16,CC(C)(C)OC(=O)N1CCC2(CC1)N=C(c1ccccc1)C(=S)N2 [CBK288478],118.176%
17,CCOc1cc(-c2nc3sc(CC)cc3c(=O)[nH]2)ccc1OCC(=O)O [CBK298291],106.031%
18,Cc1c(C(=O)N2CCC(c3ccncc3)CC2)oc2ccccc12 [CBK282413],96.7336%
19,CN1CCC(N2CCN(C(=O)NCc3ccc4c(c3)OCO4)CC2)CC1 [CBK155885],100%
20,Cc1ccc(S(=O)(=O)N(CCO)CC2CC2)c(Cl)c1 [CBK304885],128.258%
21,O=C(CCCN1C(=O)c2cccc3cccc(c23)C1=O)N1CCN(Cc2ccc3c(c2)OCO3)CC1 [CBK074370],119.191%
22,O=C1CN(C(=O)Nc2ccccc2Cl)CCN1 [CBK155862],102.88%
23,CCCCOc1ccc(-c2ccc(C#N)cc2)cc1 [CBK056958],137.113%
24,Cc1ccc(OC(=O)CCC(=O)Nc2ccc(S(N)(=O)=O)cc2)cc1 [CBK264708],112.17%
25,CC1c2ccsc2CCN1S(C)(=O)=O (stereo not shown) [CBK023574],141.217%
26,O=C(N[C@H]1CCN2C(=O)c3cc(-c4cccs4)ccc3NC(=O)[C@H]12)c1cccs1 [CBK289336],105.233%
27,Cc1nc(-c2cccnc2)[nH]c(=O)c1CC(=O)N1CCN(C)CC1C (stereo not shown) [CBK304950],133.817%

row,Structure (SMILES),% of control remaining
1,COc1ccc(-c2c3c(nc4sc(C#N)c(N)c24)CCCC3)cc1 [CBK270279],117.556%
2,COCCN1CCN(c2nc(-c3ccncc3)nc3c2CCC3)CC1 [CBK306101],147.013%
3,O=S(=O)(Nc1ncccn1)c1ccc(NC(=S)Nc2ccc3c(c2)OCO3)cc1 [CBK267046],23.7167%
4,O=C(NCCn1c(C(F)(F)F)cc(=O)c2cccc(F)c21)C1CC1 [CBK284807],163.635%
5,CCOC(=O)Cc1csc(NS(=O)(=O)c2cc(C)c(Cl)cc2Cl)n1 [CBK012872],107.504%
6,COc1ccc(Cl)cc1S(=O)(=O)N1CCC(C(=O)O)CC1 [CBK269607],157.786%
7,CC1=C[C@@H](CNC(=O)NC2CCCCC2)[C@H](C(C)C)C[C@H]1CC(=O)O [CBK289211],144.783%
8,O=c1[nH]c2ncc(-c3ccco3)nc2n1Cc1cccs1 [CBK064438],164.298%
9,CC(=O)Nc1cccc(-c2cncc(NCc3ccco3)n2)c1 [CBK065290],149.501%
10,Cc1ccc(S(=O)(=O)Nc2ccccc2-c2nc3ccccc3c(=O)o2)cc1 [CBK087613],119.79%
11,CN(C)CCN(C)c1nc(-c2ccc(Oc3ccccc3)cc2)cn2ccnc12 [CBK066469],200.38%
12,O=C(O)CC(c1ccncc1)c1c[nH]c2ccccc12 (stereo not shown) [CBK286913],129.729%
13,O=[N+]([O-])c1ccc(N/N=C/c2cnn(-c3ccccc3)c2)cc1 [CBK018746],82.0579%
14,CCCC1(C)NC(=O)N(Cc2coc(-c3cccs3)n2)C1=O (stereo not shown) [CBK305594],150.967%
15,Nc1nc2c(s1)c(=O)[nH]c(=O)n2-c1ccc(Cl)cc1 [CBK269891],154.883%
16,O=C(NCCN1CCCCC1)C1CC(=O)N(Cc2ccco2)C1 (stereo not shown) [CBK304877],129.152%
17,O=C(/C=C/c1cccnc1)Nc1cccc(N2CCNCC2)c1 [CBK034128T],88.8375%
18,O=C(CCCCCN1C(=O)c2ccccc2C1=O)Nc1cccc(C(=O)O)c1 [CBK287261],163.98%
19,Cc1cc(N2CCCC(COc3ccccc3F)C2)nc(N)n1 (stereo not shown) [CBK306714],52.8353%
20,O=C(CN1CCc2c([nH]c3ccccc23)C12CCN(Cc1ccc(F)cc1)C2)Nc1ccccc1 (stereo not shown) [CBK059450],102.101%
21,CS(=O)(=O)c1ccc(-n2cc(CN3CCC(Sc4ccccc4)CC3)nn2)cc1 [CBK149468],108.694%
22,O[C@@H]1C[C@@H](c2nc(-c3ccc4c(c3)OCO4)no2)N(Cc2cc3ccccc3o2)C1 [CBK288868],109.02%
23,CC(Cn1cccn1)NCC(=O)N(C)C1(C#N)CCCCC1 (stereo not shown) [CBK305096],125.129%
24,CCc1onc(C)c1C(=O)NC(Cc1ccsc1)c1nccs1 (stereo not shown) [CBK285142],104.774%
25,CC(C)[C@@H](CO)Nc1nc(-c2cccc3ccccc23)cnc1N [CBK063725],179.072%
26,CCN1CCC2CCC(C1)N2Cc1ccc(Oc2cnccn2)cc1 (stereo not shown) [CBK304034],107.612%
27,C[C@@H](Nc1nccnc1-c1cccc(F)c1)c1ccccc1 [CBK036733],83.1141%

row,Structure (SMILES),% of control remaining
1,CN(C)CCN(C)c1cncc(-c2cccc(C(F)(F)F)c2)n1 [CBK065584],121.519%
2,Cc1ccc(CC(=O)Nc2nc(Cc3n[nH]c(=S)n3C)cs2)cc1 [CBK296766],126.813%
3,CCC(C)C(NC(=O)c1ccccc1NC(=O)c1ccc(OC)cc1)C(=O)O (stereo not shown) [CBK296090],131.176%
4,c1ccc2cc(-c3cnc(N4CCOCC4)c4nccn34)ccc2c1 [CBK091307],115.081%
5,O=S(=O)(c1ccccc1)N1CC2(CCNCC2)c2ccccc21 [CBK137413],155.793%
6,CSc1cccc(NC(=O)N2CCN(C(=O)C3CCCO3)CC2)c1 (stereo not shown) [CBK043283],80.4458%
7,COc1c(C(N)=O)c(O)c(OC)c2occc12 [CBK016255],121.191%
8,Cc1c(NC(=O)CSc2nnc(-c3ccc4ccccc4n3)s2)c(=O)n(-c2ccccc2)n1C [CBK269341],150.21%
9,O=C(CC1(C(F)(F)F)NCCN1)c1cccc([N+](=O)[O-])c1 [CBK263443],123.865%
10,CCOc1cc(C=O)ccc1OCc1c(C)no[n+]1[O-] [CBK263449],129.578%
11,FC(F)(F)c1nc2ccccc2nc1SCc1cccs1 [CBK103728],96.239%
12,Cc1ccccc1CN1CCC(O)(c2cccnc2F)CC1 [CBK284376],88.9487%
13,CC1CCc2c(sc(NC(=O)Cn3cnc([N+](=O)[O-])n3)c2C(N)=O)C1 (stereo not shown) [CBK263064],110.539%
14,O=C(O)CC1(O)C(=O)N(Cc2ccccc2)c2ccccc21 (stereo not shown) [CBK286673],132.171%
15,O=c1nc(NC2CCCCC2)sc2ncccc12 [CBK067024T],114.37%
16,COc1cc(-c2cnc3[nH]c(=O)n(Cc4ccco4)c3n2)cc(OC)c1OC [CBK064755],159.859%
17,Cc1nn(C)cc1-c1cncn1CCOc1ccc(Cl)cc1 [CBK281508],140.84%
18,O=C1COc2ccccc2C/C=C/CC2(CCN(CC(=O)N3CCCC3)CC2)CN1 [CBK292126],106.256%
19,Nc1c(Cc2c(Cl)cccc2Cl)c(=O)n2n1CCC2 [CBK088948],103.167%
20,OCC12COC3c4ccccc4C(OC1)N32 (stereo not shown) [CBK006347],114.717%
21,O=C(Cn1ncc2ccccc2c1=O)NNC(=S)NC1CC2CCC1C2 (stereo not shown) [CBK267892],97.8145%
22,CCCCC(c1cccnc1)N(C)C(=O)Cn1ccccc1=O (stereo not shown) [CBK306936],115.395%
23,CC1CN(Cc2nc3c(c(=O)n(C)c(=O)n3C)n2CCCc2ccccc2)CC(C)O1 (stereo not shown) [CBK269349],105.649%
24,Clc1ccc(-n2ncc(-c3ccsc3)n2)cc1Cl [CBK112843],118.885%
25,COc1cc(-c2nc(C(C)=O)c(C)n2O)cc(OC)c1OC [CBK270083],108.859%

# Part of the list above in order of SMILES length, rising.
row,Structure (SMILES),% of control remaining
7,COc1c(C(N)=O)c(O)c(OC)c2occc12 [CBK016255],121.191%
19,Cc1cc(N2CCCC(COc3ccccc3F)C2)nc(N)n1 (stereo not shown) [CBK306714],52.8353%
15,Nc1nc2c(s1)c(=O)[nH]c(=O)n2-c1ccc(Cl)cc1 [CBK269891],154.883%
19,CN1CCC(N2CCN(C(=O)NCc3ccc4c(c3)OCO4)CC2)CC1 [CBK155885],100%
